Reference: article PMC8390522
No constants are given. Whether binding was seen depends on the method and setting. Some results given as binding are weak or reduced against the parent protein; the word gives no strength.

Amino acid sequences for entries named in this document (tags omitted).
UniProt P26527: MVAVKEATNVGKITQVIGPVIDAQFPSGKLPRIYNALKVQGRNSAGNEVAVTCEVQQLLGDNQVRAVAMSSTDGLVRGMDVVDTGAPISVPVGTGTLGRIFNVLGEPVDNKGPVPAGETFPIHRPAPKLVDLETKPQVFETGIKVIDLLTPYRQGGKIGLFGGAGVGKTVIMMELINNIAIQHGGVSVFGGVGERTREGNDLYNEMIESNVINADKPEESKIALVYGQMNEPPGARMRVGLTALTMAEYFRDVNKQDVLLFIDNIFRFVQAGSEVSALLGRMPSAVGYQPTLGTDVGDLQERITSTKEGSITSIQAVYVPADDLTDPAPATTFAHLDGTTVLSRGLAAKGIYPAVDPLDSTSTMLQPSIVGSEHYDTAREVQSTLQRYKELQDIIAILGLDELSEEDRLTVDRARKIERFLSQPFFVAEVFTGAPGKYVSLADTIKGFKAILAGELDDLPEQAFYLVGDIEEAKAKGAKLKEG

Molecular target: β subunit of FoF1 ATP synthase of Synechocystis sp. PCC 6803 with an N-terminal His10-tag (Synechocystis sp. PCC 6803) (UniProt P26527)
Assay: co-purification by Ni-affinity chromatography; thylakoid membranes solubilised with 1% LMNG; FoF1 held by the His10-tag of the β subunit, 10 mM potassium phosphate pH 8.0, 100 mM K2SO4, 0.1 mM MgCl2, 0.1 mM ADP, 0.005% LMNG, 60 to 200 mM imidazole; bands of the SDS-PAGE gel identified by peptide mass fingerprinting, N-terminal sequencing or immunoblot

binding | Binder
binds | δ subunit of FoF1 ATP synthase of Synechocystis sp. PCC 6803 (protein, UniProt P27180 1-185) MKGSLYSSKIAEPYAQALIGLAQQQNLTEVFGDNLRSLLTLLQDSPDLSAVLSSPVVKDEDKKSVLRSVLGDGGNGYLLNFLMLLVDKRRIVFLEAICEQYLALLRQFTNTVLAEVTSALKLTDAQKDQVKERVKQLTGAQAVELETKVDGDILGGIVIKVGSQVFDSSLRGQLRRVGLSLGTAL
binds | ε subunit of FoF1 ATP synthase of Synechocystis sp. PCC 6803 (protein, UniProt P26533 1-136) MTLTVRVITPDKVVWDEEVQELILPSTTGQLGILSNHAPLLTALEIGVMRVRPGKDWQNIAVMGGFAEVENNEVKVLVNGAELGTTIDAESARQAYTAAQGALEEANRGEDKPNQLKASNNYKKARARLQAAGGAV
binds | b' subunit of FoF1 ATP synthase of Synechocystis sp. PCC 6803 (protein, UniProt P27183 1-143) MFDFDATLPLMALQFVVLAFLLNAIFYKPMNKVLDERADYIRTNEEDARERLAKAKAITQEYEQQITDARRQSQAVIADAQAEARRLAAEKIAEAQRESQRQKETAAQEIEAQRQSALSSLEQEVAALSNQILHKLLGPELIK
binds | γ subunit of FoF1 ATP synthase of Synechocystis sp. PCC 6803, Δ205–220/E204G/K221G (protein, UniProt P17253) MPNLKAIRDRIQSVKNTKKITEAMRLVAAAKVRRAQEQVLSTRPFADALAQVLYNLQNRLSFAETELPLFEQREPKAVALLVVTGDRGLCGGYNVNAIKRAEQRAKELKNQGIAVKLVLVGSKAKQYFGRRDYDVAASYANLEQIPNASEAAQIADSLVALFVSETVDRVELIYTRFVSLISSQPVVQTLFPLSPQGLEAPDDGGVEAPVESFPQDMIFEQDPVQILEALLPLYNTNQLLRALQESAASELAARMTAMSNASDNAGQLIGTLTLSYNKARQAAITQELLEVVAGANSL
binds | γ subunit of FoF1 ATP synthase of Synechocystis sp. PCC 6803, Δ212–213/R211G/K214G (protein, UniProt P17253 1-314) MPNLKAIRDRIQSVKNTKKITEAMRLVAAAKVRRAQEQVLSTRPFADALAQVLYNLQNRLSFAETELPLFEQREPKAVALLVVTGDRGLCGGYNVNAIKRAEQRAKELKNQGIAVKLVLVGSKAKQYFGRRDYDVAASYANLEQIPNASEAAQIADSLVALFVSETVDRVELIYTRFVSLISSQPVVQTLFPLSPQGLEAPDDEIFRLITGGFQVEREKVEAPVESFPQDMIFEQDPVQILEALLPLYNTNQLLRALQESAASELAARMTAMSNASDNAGQLIGTLTLSYNKARQAAITQELLEVVAGANSL
binds | b subunit of FoF1 ATP synthase of Synechocystis sp. PCC 6803 (protein, UniProt P27181 1-179) MLNTLFILAAEAHEAGEGGFGINLDFLEANLFNLAILLGIIIYYAPKTLGKILGDRRQKIADAIEEAETRQRKSAQILAEEEKKLAQAKAEAARIVQEAGQRAEVAKQEIATQTEADLRRMQEAAAQDLGAEQERVIAELKRRIAEQAVAKAEADLRDRLNEDTQDRLIERSIAQLGGR
binds | γ subunit of FoF1 ATP synthase of Synechocystis sp. PCC 6803 (protein, UniProt P17253 1-314) MPNLKAIRDRIQSVKNTKKITEAMRLVAAAKVRRAQEQVLSTRPFADALAQVLYNLQNRLSFAETELPLFEQREPKAVALLVVTGDRGLCGGYNVNAIKRAEQRAKELKNQGIAVKLVLVGSKAKQYFGRRDYDVAASYANLEQIPNASEAAQIADSLVALFVSETVDRVELIYTRFVSLISSQPVVQTLFPLSPQGLEAPDDEIFRLITRGGKFQVEREKVEAPVESFPQDMIFEQDPVQILEALLPLYNTNQLLRALQESAASELAARMTAMSNASDNAGQLIGTLTLSYNKARQAAITQELLEVVAGANSL
